Results are given in words; binding and its absence hold for the method and conditions named. For some of these results: Binding seen in cells or lysates may run through a third protein. Some entries that bind do so weakly or less than the wild type. For some of these results: Where a sequence is shown, tags or fusion partners need not be part of it. One block for each binder: values may come before it.
Key:
[1] = molecular target: T1, Human ABCG2, nanodisc reconstituted (human), Q9UNQ0; experiment: cryo-EM structure; single-particle cryo-EM of nanodisc reconstituted ABCG2 (~1 mg/mL, 25 mM Tris pH 8, 150 mM NaCl), apo or with 75 uM imatinib, MXN or SN38; C2 symmetry applied; both purified; conditions: remark: other sources report otherwise
T1 chain: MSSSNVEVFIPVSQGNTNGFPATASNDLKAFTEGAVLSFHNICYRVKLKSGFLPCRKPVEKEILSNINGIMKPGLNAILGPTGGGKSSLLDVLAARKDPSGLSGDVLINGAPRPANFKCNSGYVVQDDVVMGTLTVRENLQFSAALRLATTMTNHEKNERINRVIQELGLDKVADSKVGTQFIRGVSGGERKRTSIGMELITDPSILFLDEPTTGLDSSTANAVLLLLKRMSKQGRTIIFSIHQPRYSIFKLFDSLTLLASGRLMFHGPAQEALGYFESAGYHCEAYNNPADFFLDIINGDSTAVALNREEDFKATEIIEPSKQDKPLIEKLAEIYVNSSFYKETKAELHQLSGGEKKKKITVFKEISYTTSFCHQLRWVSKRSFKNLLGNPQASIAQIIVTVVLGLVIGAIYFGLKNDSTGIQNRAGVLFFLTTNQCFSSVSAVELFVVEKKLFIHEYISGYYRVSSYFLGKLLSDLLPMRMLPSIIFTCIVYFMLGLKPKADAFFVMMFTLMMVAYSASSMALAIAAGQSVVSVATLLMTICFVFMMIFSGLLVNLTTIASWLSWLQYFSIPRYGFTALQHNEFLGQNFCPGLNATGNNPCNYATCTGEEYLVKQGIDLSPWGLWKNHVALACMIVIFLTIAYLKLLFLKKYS

[2] = molecular target: T2, Wild-type human ABCG2 with an N-terminal GFP tag (human), Q9UNQ0; experiment: cross-linking; disulfide cross-linking in intact HEK293F cells, native disulfide or oxidation with 300 uM copper phenanthroline for 45 min, with or without Ko143, orthovanadate, imatinib, MXN or SN38; non-reducing SDS-PAGE with in-gel GFP fluorescence; conditions: remark: other sources report otherwise
T2 chain: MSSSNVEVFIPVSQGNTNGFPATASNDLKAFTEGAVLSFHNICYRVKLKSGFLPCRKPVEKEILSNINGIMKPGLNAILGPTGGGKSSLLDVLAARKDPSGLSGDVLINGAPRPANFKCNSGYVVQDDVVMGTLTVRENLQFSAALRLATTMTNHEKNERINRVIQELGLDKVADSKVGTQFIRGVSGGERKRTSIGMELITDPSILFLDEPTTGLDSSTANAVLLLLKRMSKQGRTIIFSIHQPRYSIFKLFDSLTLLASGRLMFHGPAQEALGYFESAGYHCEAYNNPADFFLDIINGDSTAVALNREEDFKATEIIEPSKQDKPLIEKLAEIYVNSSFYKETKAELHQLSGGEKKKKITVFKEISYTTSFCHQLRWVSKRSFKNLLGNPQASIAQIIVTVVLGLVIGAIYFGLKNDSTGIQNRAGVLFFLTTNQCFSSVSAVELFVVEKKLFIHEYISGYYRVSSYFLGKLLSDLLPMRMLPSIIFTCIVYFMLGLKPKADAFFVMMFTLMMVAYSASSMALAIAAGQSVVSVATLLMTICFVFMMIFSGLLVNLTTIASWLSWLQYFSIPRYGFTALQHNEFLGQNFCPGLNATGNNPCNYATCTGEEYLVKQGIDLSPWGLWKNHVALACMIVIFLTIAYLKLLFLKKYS

[3] = molecular target: GFP-ABCG2 Val534Cys in a Cys603Ser background (human) (UniProt Q9UNQ0); experiment: as above
[4] = molecular target: GFP-ABCG2 Ala537Cys in a Cys603Ser background (human) (UniProt Q9UNQ0); experiment: as above

B3: GFP-ABCG2 Val534Cys in a Cys603Ser background (protein, UniProt Q9UNQ0 1-655)
chain: MSSSNVEVFIPVSQGNTNGFPATASNDLKAFTEGAVLSFHNICYRVKLKSGFLPCRKPVEKEILSNINGIMKPGLNAILGPTGGGKSSLLDVLAARKDPSGLSGDVLINGAPRPANFKCNSGYVVQDDVVMGTLTVRENLQFSAALRLATTMTNHEKNERINRVIQELGLDKVADSKVGTQFIRGVSGGERKRTSIGMELITDPSILFLDEPTTGLDSSTANAVLLLLKRMSKQGRTIIFSIHQPRYSIFKLFDSLTLLASGRLMFHGPAQEALGYFESAGYHCEAYNNPADFFLDIINGDSTAVALNREEDFKATEIIEPSKQDKPLIEKLAEIYVNSSFYKETKAELHQLSGGEKKKKITVFKEISYTTSFCHQLRWVSKRSFKNLLGNPQASIAQIIVTVVLGLVIGAIYFGLKNDSTGIQNRAGVLFFLTTNQCFSSVSAVELFVVEKKLFIHEYISGYYRVSSYFLGKLLSDLLPMRMLPSIIFTCIVYFMLGLKPKADAFFVMMFTLMMVAYSASSMALAIAAGQSVCSVATLLMTICFVFMMIFSGLLVNLTTIASWLSWLQYFSIPRYGFTALQHNEFLGQNFCPGLNATGNNPSNYATCTGEEYLVKQGIDLSPWGLWKNHVALACMIVIFLTIAYLKLLFLKKYS
binding [3]: binds

B4: GFP-ABCG2 Ala537Cys in a Cys603Ser background (protein, UniProt Q9UNQ0 1-655)
chain: MSSSNVEVFIPVSQGNTNGFPATASNDLKAFTEGAVLSFHNICYRVKLKSGFLPCRKPVEKEILSNINGIMKPGLNAILGPTGGGKSSLLDVLAARKDPSGLSGDVLINGAPRPANFKCNSGYVVQDDVVMGTLTVRENLQFSAALRLATTMTNHEKNERINRVIQELGLDKVADSKVGTQFIRGVSGGERKRTSIGMELITDPSILFLDEPTTGLDSSTANAVLLLLKRMSKQGRTIIFSIHQPRYSIFKLFDSLTLLASGRLMFHGPAQEALGYFESAGYHCEAYNNPADFFLDIINGDSTAVALNREEDFKATEIIEPSKQDKPLIEKLAEIYVNSSFYKETKAELHQLSGGEKKKKITVFKEISYTTSFCHQLRWVSKRSFKNLLGNPQASIAQIIVTVVLGLVIGAIYFGLKNDSTGIQNRAGVLFFLTTNQCFSSVSAVELFVVEKKLFIHEYISGYYRVSSYFLGKLLSDLLPMRMLPSIIFTCIVYFMLGLKPKADAFFVMMFTLMMVAYSASSMALAIAAGQSVVSVCTLLMTICFVFMMIFSGLLVNLTTIASWLSWLQYFSIPRYGFTALQHNEFLGQNFCPGLNATGNNPSNYATCTGEEYLVKQGIDLSPWGLWKNHVALACMIVIFLTIAYLKLLFLKKYS
binding [4]: binds

Second part, the binder after the results:

binding [1]: binds
B1: Human ABCG2, nanodisc reconstituted, Q9UNQ0 1-655 (protein)
chain: MSSSNVEVFIPVSQGNTNGFPATASNDLKAFTEGAVLSFHNICYRVKLKSGFLPCRKPVEKEILSNINGIMKPGLNAILGPTGGGKSSLLDVLAARKDPSGLSGDVLINGAPRPANFKCNSGYVVQDDVVMGTLTVRENLQFSAALRLATTMTNHEKNERINRVIQELGLDKVADSKVGTQFIRGVSGGERKRTSIGMELITDPSILFLDEPTTGLDSSTANAVLLLLKRMSKQGRTIIFSIHQPRYSIFKLFDSLTLLASGRLMFHGPAQEALGYFESAGYHCEAYNNPADFFLDIINGDSTAVALNREEDFKATEIIEPSKQDKPLIEKLAEIYVNSSFYKETKAELHQLSGGEKKKKITVFKEISYTTSFCHQLRWVSKRSFKNLLGNPQASIAQIIVTVVLGLVIGAIYFGLKNDSTGIQNRAGVLFFLTTNQCFSSVSAVELFVVEKKLFIHEYISGYYRVSSYFLGKLLSDLLPMRMLPSIIFTCIVYFMLGLKPKADAFFVMMFTLMMVAYSASSMALAIAAGQSVVSVATLLMTICFVFMMIFSGLLVNLTTIASWLSWLQYFSIPRYGFTALQHNEFLGQNFCPGLNATGNNPCNYATCTGEEYLVKQGIDLSPWGLWKNHVALACMIVIFLTIAYLKLLFLKKYS

binding [2]: binds
B2: Wild-type human ABCG2 with an N-terminal GFP tag, Q9UNQ0 1-655 (protein)
chain: MSSSNVEVFIPVSQGNTNGFPATASNDLKAFTEGAVLSFHNICYRVKLKSGFLPCRKPVEKEILSNINGIMKPGLNAILGPTGGGKSSLLDVLAARKDPSGLSGDVLINGAPRPANFKCNSGYVVQDDVVMGTLTVRENLQFSAALRLATTMTNHEKNERINRVIQELGLDKVADSKVGTQFIRGVSGGERKRTSIGMELITDPSILFLDEPTTGLDSSTANAVLLLLKRMSKQGRTIIFSIHQPRYSIFKLFDSLTLLASGRLMFHGPAQEALGYFESAGYHCEAYNNPADFFLDIINGDSTAVALNREEDFKATEIIEPSKQDKPLIEKLAEIYVNSSFYKETKAELHQLSGGEKKKKITVFKEISYTTSFCHQLRWVSKRSFKNLLGNPQASIAQIIVTVVLGLVIGAIYFGLKNDSTGIQNRAGVLFFLTTNQCFSSVSAVELFVVEKKLFIHEYISGYYRVSSYFLGKLLSDLLPMRMLPSIIFTCIVYFMLGLKPKADAFFVMMFTLMMVAYSASSMALAIAAGQSVVSVATLLMTICFVFMMIFSGLLVNLTTIASWLSWLQYFSIPRYGFTALQHNEFLGQNFCPGLNATGNNPCNYATCTGEEYLVKQGIDLSPWGLWKNHVALACMIVIFLTIAYLKLLFLKKYS

— article PMC7210939, “ABCG2 transports anticancer drugs via a closed-to-open switch” (Nature Communications, 2020)
